Laboratory results from PubChem BioAssay AID2685 (National Center for Advancing Translational Sciences (NCATS), 2010).
The campaign covered roughly 320,000 compounds. About 2,100 (0.66%) were called active. The shares of active, inactive and inconclusive entries below differ from those in the screen. Calls come from the whole dose curve; as a rule, active = well fitted inhibition curve with a large enough effect in the signal ratio, with a control signal flat (not every such curve was filed as active); inconclusive = small, poorly fitted or top-dose-only effect, or effect the other way, or a change in a side signal; inactive = flat fitted curve, though single readings scatter; the % refers to the signal ratio. A potency beside an inconclusive call is a rough fit, not a confirmed value.

Assay: qHTS Assay for Lipid Storage Modulators in Drosophila S3 Cells
Settings: BODIPY lipid droplet fluorescence, 18-24 h, cells fed with added oleic acid; lipid storage change, negative = inhibition: at 46.1 µM (top of the series) unless noted
Summary of the method: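 Drosophila S3 cells loaded with oleic acid (400 uM, as added) and compounds at several concentrations; lipid droplets imaged by 488-nm laser-scanning cytometry, 500–530 nm intensity and object ratio to cell channel. Percent activity normalized to 20 uM Triacsin C.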
% is set by controls: 0 for no effect and ±100 for the full control effect; potency is the fitted concentration of half-maximal effect.

Row | SMILES | Potency | lipid storage change, negative = inhibition
1 | COc1ccc2ccccc2c1/C=N/NC(=O)c1sc(N)c(C#N)c1C | inconclusive: 29.1 µM [cytotoxic, single point] | 
2 | O=c1cc(-c2cccc(Br)c2)nc(-c2ccccc2F)o1 | inconclusive: 6.51 µM [rising, partial curve] | 
3 | O=C(NC1CCOCC1)C1CCC(=O)N(CCc2ccc(Cl)cc2)C1 (stereo not given) | inconclusive: 29.1 µM [activator, single point] | 
4 | COc1ccc(NC(=O)O/N=C/c2ccc(Br)cc2)cc1 |  | inconclusive: -28.5%
5 | O=C(COc1c(F)c(F)c(C(F)(F)F)c(F)c1F)Nc1ccc(N2CCOCC2)c(Cl)c1 |  | inconclusive: -51.6%
6 | CCCCn1c(SCC(=O)Nc2cc(NC(=O)c3ccco3)ccc2C)nc2ccccc2c1=O |  | inconclusive: -0.271% [at 9.22 µM]
7 | O=C(CN1CCN(c2ccc(F)cc2)CC1)Nc1ccc2c(c1)OCCO2 |  | inconclusive: 381%
8 | CCOC(=O)c1cc2c(nc1NC(=S)Nc1ccccc1)CC(C)(C)OC2 | inconclusive: 2.91 µM [falling, partial curve] | 
9 | CCCCCCCNC(=O)c1ccc(N2CCC3(CC2)OCCO3)c([N+](=O)[O-])c1 |  | inconclusive: -1.42%
10 | c1ccc(OCc2nn3c(-c4ccncc4)nnc3s2)cc1 |  | inconclusive: 2.53%
11 | O=C(NC1=NCCS1)c1cc(-c2cccc(Br)c2)nc2ccccc12 | inconclusive: 6.51 µM [rising, full curve, poor fit] | 
12 | COc1ccc(-n2nnnc2CNC(=O)C2CC(=O)N(c3ccc(Cl)cc3)C2)cc1 (stereo not given) |  | inconclusive: 41.3%
13 | Cc1c(C)n(C(=O)CN2CCN(c3ccccc3)CC2)c2ccccc12 |  | inconclusive: 1.82%
14 | COc1ccc(C(C)=O)cc1COC(=O)c1cnc(Cl)c(Cl)c1 |  | inconclusive: 3.46%
15 | CCCCn1c(-c2ccc(Br)cc2F)nc2c1c(=O)[nH]c(=O)n2CC(C)C |  | inconclusive: 8.43%
16 | COc1ccc(C)cc1NC(=O)C(NCC1CCCO1)c1ccccc1 (stereo not given) |  | inconclusive: 23.4%
17 | Cc1cc(C)nc(NS(=O)(=O)c2ccc(NC(=O)c3ccc(O)cc3O)cc2)n1 | inconclusive: 29.1 µM [activator, single point] | 
18 | COc1ccc2[nH]c(=O)c(CN(Cc3ccco3)C(=O)c3ccccc3)cc2c1 |  | inconclusive: 9.78%
19 | Cc1ccc(S(=O)(=O)NC(=O)NC(C)c2ccc(F)cc2)cc1 (stereo not given) | inconclusive: 29.1 µM [activator, single point] | 
20 | COc1ccc(CCNC(=O)c2cc(-c3ccccn3)nc3ccccc23)cc1 | inconclusive: 29.1 µM [falling, single point] | 
21 | CC(C)c1ccccc1NC(=S)NCc1ccccc1F | inconclusive: 20.6 µM [falling, single point] | 
22 | CCC(C)n1c(=N)c(C#N)cc2c(=O)n3cccc(C)c3nc21 (stereo not given) |  | inconclusive: -27.8%
23 | N#Cc1c(Cl)nsc1NC(=O)c1ccccc1 |  | inconclusive: -89.4%
24 | O=C1C2CCCN2c2ccc(S(=O)(=O)N3CCOCC3)cc2N1Cc1ccccc1F (stereo not given) |  | inconclusive: -6.94%
25 | CCn1c(-c2ccccc2)c[nH]c1=S |  | inconclusive: 21.6%

Row | SMILES | Potency | lipid storage change, negative = inhibition
26 | C/C(Cl)=C/Cc1c(C)[nH]c2c(ccc3ccccc32)c1=O |  | inconclusive: -25.8%
27 | OC(c1ccc(OCc2ccccc2)cc1)c1nnc(-c2ccccc2)o1 (stereo not given) |  | inconclusive: 99%
28 | COc1ccccc1NC(=O)CCCc1nnc2n(C)c(=O)c3sccc3n12 |  | inconclusive: -100%
29 | CCn1cc(S(=O)(=O)N2CCN(Cc3ccc(F)cc3)CC2)cn1 |  | inconclusive: 9.34% [cytotoxic]
30 | Cn1cc(C(=O)NCN2CCCCC2)c2ccccc21 |  | inconclusive: 0.266%
31 | COc1ccc(C2=NN(C(=O)c3ccccc3)C(c3ccccc3)C2)c(O)c1 (stereo not given) |  | inconclusive: 20.9%
32 | O=C(Nc1ccc2snnc2c1)N1CCSCC1 |  | inconclusive: -12.6%
33 | Cc1nn(CCc2n[nH]c(=S)n2C2CCCCC2)c(C)c1Br |  | inconclusive: -0.763%
34 | Cc1ccc2c(c1)cc1c(=O)n(CC(=O)NCCCc3ccccc3)nc(C)n12 | inconclusive: 6.51 µM [activator, single point] | 
35 | CN1CCN(c2ccccc2NC(=O)c2cccs2)CC1 |  | inconclusive: 13%
36 | O=C(Cc1ccccc1)c1c[nH]c(C(=O)NC2CCCC2)c1 |  | inconclusive: 7.8%
37 | COc1ccc(CCNCc2cc3ccc(C)cc3[nH]c2=O)cc1OC |  | inconclusive: 44.2%
38 | CCN(CC)CCOC(=O)c1c(C)oc2ccc(OC)cc12 | inconclusive: 6.51 µM [falling, single point] | 
39 | Cc1ccc(S(=O)(=O)Nc2nc(N)n(-c3ccccc3)n2)cc1 |  | inconclusive: -0.929%
40 | Cc1cc(=O)n2nc(N3CCCC3C(=O)Nc3cccc(F)c3)sc2n1 (stereo not given) |  | inconclusive: 48.2%
41 | N#CC1=C2SCN(c3ccccc3)CN2C(=O)CC1c1c(Cl)cccc1Cl (stereo not given) |  | inconclusive: 27% [at 9.22 µM]
42 | CC(OC(=O)CCCc1nc2ccccc2s1)C(=O)NC(N)=O (stereo not given) |  | inconclusive: -9.39%
43 | CC(C)n1cnc2c(Nc3ccc(F)c(Cl)c3)nc(NCCO)nc21 |  | inconclusive: -65.2%
44 | C/C(=N/NC(=O)CNC(=O)CCc1ccccc1)c1ccc(Cl)cc1 |  | inconclusive: 2.34%
45 | CCCCn1c(N)c(N(CC(C)C)C(=O)C2=NN(c3ccccc3)C(=O)CC2)c(=O)[nH]c1=O |  | inconclusive: 17.2%
46 | CCCn1nc(C(=O)N(C)CC(=O)Nc2ccc(OCC)c(OCC)c2)c2ccccc2c1=O |  | inconclusive: 66.5%
47 | COc1cc(NS(=O)(=O)c2ccc(NC(=S)NC(=O)c3ccc(F)c(F)c3)cc2)nc(OC)n1 |  | inconclusive: 17.1%
48 | COc1ccccc1OCC(=O)N1CCN(C(=O)c2ccco2)CC1 |  | inconclusive: 24.4%
49 | O=C(c1cccc(N2C(=O)c3ccccc3C2=O)c1)N1CCCC(C(F)(F)F)C1 (stereo not given) |  | inconclusive: -100%
50 | CCN(CC)CCCCNc1ncc2cc(-c3cc(OC)cc(OC)c3)c(NC(=O)NC(C)(C)C)nc2n1 |  | inconclusive: -8.29%

Row | SMILES | Potency | lipid storage change, negative = inhibition
51 | CC(C)NC(=O)c1cc(-n2cnnc2)ccc1Cl | active: 25.9 µM | 
52 | O=C(Nc1cccc(Cl)c1Cl)C1CC(=O)N(c2ccc(Br)cc2)C1 (stereo not given) | inconclusive: 29.1 µM [cytotoxic, single point] | 
53 | CC1CCCCN1C(=S)NC(=O)c1ccccc1 (stereo not given) |  | inconclusive: 49.7%
54 | O=C(C1CCN(S(=O)(=O)c2cccc3cccnc23)CC1)N1CCCCC1 | inconclusive: 6.51 µM [falling, single point] | 
55 | Cc1cccnc1NC(=O)CNC(=O)c1cccs1 | inconclusive: 0.82 µM [falling, full curve, poor fit] | 
56 | CN(c1ccccc1)c1nc(N)c([N+](=O)[O-])c(NCc2ccco2)n1 | inconclusive: 29.1 µM [activator, single point] | 
57 | O=C(Nc1cccc(S(=O)(=O)N2CCCCC2)c1)c1ccc2ncsc2c1 | inconclusive: 1.84 µM [rising, partial curve, poor fit] | 
58 | Cc1ccc(S(=O)(=O)NC2=NCN(C)CN2)cc1[N+](=O)[O-] | inconclusive: 25.9 µM [activator, single point] | 
59 | CC(=O)C12OC1CC1C3CCC4=CC(=O)CCC4(C)C3CCC12C (stereo not given) | inconclusive: 0.82 µM [activator, full curve] | 
60 | COc1ccc(-n2c(SCC(=O)c3ccc[nH]3)nnc2-c2ccccc2)cc1 |  | inconclusive: 16.6%
61 | Cc1ccc(Cc2nc(-c3cccnc3)no2)cc1 |  | inactive: 1.98%
62 | CC(=O)Cc1nsc(NC(=O)c2cn(-c3ccccc3)nc2-c2ccc(Br)cc2)n1 | inconclusive: 2.06 µM [activator, partial curve] | 
63 | CC(C)C[C@H](NC(=O)OC(C)(C)C)C(=O)NCC1CCC(C(=O)N[C@@H](Cc2ccccc2)C(=O)O)CC1 (stereo not given in full) | inconclusive: 2.06 µM [activator, partial curve] | 
64 | CC1CCN(CC(C)CNC(=O)c2cc(-c3ccccn3)nc3ccccc23)CC1 (stereo not given) | inconclusive: 8.2 µM [activator, partial curve] | 
65 | COc1ccc(-c2nn(-c3ccccc3C)cc2CNC(C)c2cn(C)nc2C)cc1F (stereo not given) |  | inconclusive: -6.75%
66 | CCc1ccccc1N(CC(=O)N1CCCC1)S(C)(=O)=O | inconclusive: 29.1 µM [falling, single point] | 
67 | O=C(C[n+]1cc(Br)cc2ccccc21)c1ccc(Br)cc1 | inconclusive: 29.1 µM [falling, single point] | 
68 | CCOc1cc(Br)c(CN2C(=O)NC3(CCCCCC3)C2=O)cc1OCC | inconclusive: 0.731 µM [activator, single point] | 
69 | O=C(O)c1ccccc1-c1ccccc1C(=O)NCc1ccco1 |  | inconclusive: -22%
70 | CCNS(=O)(=O)c1ccc(CCC(=O)N2CCN(Cc3ccccc3)CC2)cc1 | inconclusive: 0.411 µM [activator, partial curve, poor fit] | 
71 | CC(C)Oc1ccc(C(=O)Nc2ccc([N+](=O)[O-])cc2)cc1 |  | inconclusive: 13.1%
72 | Cc1ccc(S(=O)(=O)Nc2ccc3c(c2)nc(CCN2CCCCC2)n3C)cc1 |  | inconclusive: -10.2%
73 | COc1ccc(CCNC(=O)CCCC(=O)n2nc(C)c3ccccc32)cc1OC |  | inconclusive: -46.5%
74 | CCn1nc(C(=O)NCc2nnc3ccccn23)c2ccccc2c1=O |  | inconclusive
75 | S=C(NCc1ccc2c(c1)OCO2)NCc1ccco1 |  | inconclusive: -30.7% [cytotoxic] [at 0.00295 µM]

Given with tabs: entries from further up.
Row	SMILES	Potency	lipid storage change, negative = inhibition
51	CC(C)NC(=O)c1cc(-n2cnnc2)ccc1Cl	active: 25.9 µM	
52	O=C(Nc1cccc(Cl)c1Cl)C1CC(=O)N(c2ccc(Br)cc2)C1 (stereo not given)	inconclusive: 29.1 µM [cytotoxic, single point]	
53	CC1CCCCN1C(=S)NC(=O)c1ccccc1 (stereo not given)		inconclusive: 49.7%
54	O=C(C1CCN(S(=O)(=O)c2cccc3cccnc23)CC1)N1CCCCC1	inconclusive: 6.51 µM [falling, single point]	
55	Cc1cccnc1NC(=O)CNC(=O)c1cccs1	inconclusive: 0.82 µM [falling, full curve, poor fit]	
